We go through 61 compounds from PubChem BioAssay AID493014 (National Center for Advancing Translational Sciences (NCATS), 2011).

The assay can be described thus: qHTS Assay to Find Inhibitors of Chronic Active B-Cell Receptor Signaling. Conditions: ABC-DLBCL IkBa-CBG/CBR reporter, luminescence ratio (green luciferase fused to IkBa over red control in TMD8 lymphoma cells), 4 h. The gist of the method:
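TMD8 ABC-DLBCL cells carrying doxycycline-inducible green luciferase fused to IkappaBalpha plus unfused red luciferase were exposed to compounds (up to 46 uM) for 4 hrs at 37C. Activity came from the overlap-corrected green/red luminescence ratio.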

The mark [1] stands for this setting: measured here: CBR red luminescence, cell number.
[2] abbreviates: measured here: IkBa-CBG green luminescence.

Structures are written as SMILES. Some of the results follow. The main result of the screen is listed elsewhere. These columns were measured beside it and carry no call. Most of these compounds were active or inconclusive in the main read-out, so they are no random draw. The note in brackets gives the kind of curve behind each potency; many fits are weak. Peptide text beside a SMILES is read from it. * marks the point of attachment. Cbz = O=C(OCc1ccccc1)*

On to `Cc1ccc(Cl)cc1NC(=O)c1cc(NC(=O)CCCC(=O)O)ccc1N1CCCCC1`, for which the AC50 (as a rule, the concentration giving half of the maximal activity seen) under setting [1] was 35.5 µM [falling, single point]. On to `CCCC[C@]12Cc3ccccc3C(O1)c1c(cc(-c3ccccc3)oc1=O)O2`, for which the AC50 is 1.12 µM [rising, partial curve] under setting [1] and 1.26 µM [falling, single point] under setting [2]. With `Cc1nc(-c2ccc(NC(=O)CC(C)C)cc2)cs1`, the concentration at half-maximal activity (AC50) under setting [1] is 29.1 µM [falling, single point].

Consider `CCOC(=O)CON1C(=O)c2ccccc2C1=O`, for which the AC50 under setting [1] was 8.2 µM [rising, partial curve, poor fit]. On to `CCc1cc2ccc(C)cc2nc1SCC(=O)c1ccc(NC(C)=O)cc1`, for which the half-maximal activity concentration (AC50) under setting [1] was 7.08 µM [rising, full curve, poor fit]. The same measure, in the same setting: the figure for `Fc1cc(Br)ccc1COc1ccc(-c2nnco2)cc1` is 10 µM [rising, partial curve, poor fit]; for `C/C(=N\NC1=NCCN1)c1ccc(N)c([N+](=O)[O-])c1` it is 8.91 µM [falling, partial curve, poor fit].

Regarding `N#Cc1ccc2[nH]c(CO)c(-c3ccccc3)c2c1`, the AC50 under setting [1] was 7.94 µM [falling, partial curve, poor fit]. On the same count and under the same terms, the value for `O=C(COC(=O)COc1ccccc1F)NCCc1ccc(F)cc1` was 6.51 µM [falling, single point].

For `O=C(NC(Cc1ccccc1)C(=O)N1CCN(c2ccccn2)CC1)c1ccco1` (configuration not stated), the AC50 under setting [1] is 2.59 µM [falling, partial curve, poor fit]. The same measure, in the same setting: the figure for `CCC(C)C(NC(=O)C(C)NC(=O)CNC(=O)CNC(=O)OCc1ccccc1)C(=O)OC` (configuration not stated) (Cbz-GGAI-OMe; configuration not given here) is 16.4 µM [rising, partial curve, poor fit]; for `CCOc1ccc(C2NC(=O)C(C#N)=C(S)N2c2ccc(C)cc2)cc1OC` (configuration not stated) it is 7.31 µM [rising, partial curve]. In the case of `O=C(COc1ccccc1Cc1ccccc1)Nc1cccnc1`, the AC50 under setting [1] is 0.92 µM [rising, partial curve]. With `O=C(COc1ccc(Br)cc1CO)Nc1ccccc1`, under setting [1], the concentration at half-maximal activity (AC50) is 11.2 µM [falling, partial curve]. In the case of `COc1cccc(-c2sc3ccc(OC)cc3c2C#CC(C)(C)O)c1`, the AC50 under setting [1] is 29.1 µM [falling, single point].

On to `CC1CCCC(NC(=O)CN(C)CC(=O)Nc2ccc(F)cc2)C1C` (configuration not stated), for which the AC50 under setting [1] is 3.66 µM [falling, full curve, poor fit]. Same read-out and setting: the figure for `O=S(=O)(O)Oc1c[nH]c2ccccc12` is 16.4 µM [falling, partial curve]; for `CCOC(=O)c1ccc(NC(=O)c2nc[nH]c2C(=O)N2CCC(C)CC2)cc1` it is 10 µM [rising, partial curve, poor fit]. For the compound `CCc1ccccc1NC1=NCC(=O)N1C1CCCCC1`, the concentration at half-maximal activity (AC50) under setting [1] was 5.01 µM [falling, full curve]. Same read-out and setting: the value for `Cc1c(Cl)cccc1NC(=O)Nc1ccn(C)n1` was 32.6 µM [falling, single point]; that for `CCCc1nc2oc3c(NCCN(C)C)ncnc3c2c2c1CCCC2` was 17.8 µM [falling, partial curve, poor fit]; that for `OCCNc1cc(Cl)ncn1` was 6.31 µM [rising, single point]. On the same count and under the same terms, the value for `CN(C(=O)CSc1nc2ccccc2o1)C1CCCCC1` was 29.1 µM [rising, single point]; that for `N/C(=N\OC(=O)CCC1CCCCC1)c1cccnc1` was 2.51 µM [rising, partial curve, poor fit]. The same measure, in the same setting: the value for `O=C(c1ccc(C#CC2(O)CCCCC2)cc1)N1CCN(Cc2ccccc2)CC1` was 28.2 µM [falling, partial curve, poor fit]; that for `Cc1ccccc1NC(=O)Nc1cnccn1` was 22.4 µM [falling, single point]; that for `NC(=O)C1CCN(C(=O)c2ccc(OCC(=O)Nc3cccc(C(F)(F)F)c3)cc2)CC1` was 6.51 µM [falling, single point].

As to `CCN1C(=NCc2cc(OC)c(OC)c(OC)c2)N[C@@H](c2cccc(C(F)(F)F)c2)C(C(=O)OC)=C1C`, the half-maximal activity concentration (AC50) under setting [1] was 35.5 µM [falling, single point]. Same read-out and setting: the value for `Cc1ccc(C)c(C(=O)OCC(=O)Nc2cccc(S(=O)(=O)NC3=NCCCCC3)c2)c1` was 35.5 µM [falling, single point]; that for `C=CCC[C@@H](Cc1ccc(F)cc1)C(=O)OC[C@H](Cc1c[nH]c2ccccc12)NC(=O)[C@@H](CC=C)CC(=O)N(CCO)Cc1ccccc1` was 14.6 µM [falling, partial curve]. With `COc1cc(CC(=O)OCC(=O)N2CCN(C(=O)c3ccco3)CC2)cc(OC)c1OC`, the AC50 under setting [1] is 25.9 µM [rising, single point]. `Cc1ccc(/C=C/C(=O)c2cc(Br)ccc2OC(=O)c2ccco2)cc1`: the half-maximal activity concentration (AC50) is 6.51 µM [rising, single point] under setting [1] and 6.51 µM [falling, single point] under setting [2]. In the case of `OCCCNc1nc(-c2ccccc2)c2cc(Br)ccc2n1`, under setting [1], the half-maximal activity concentration (AC50) is 22.4 µM [falling, single point]. With `CSc1nsc2nc(=O)c(/C=C3\C(C)=Nc4ccc(C)cc43)c(N)n12`, the half-maximal activity concentration (AC50) under setting [1] was 8.91 µM [falling, partial curve, poor fit] and the concentration at half-maximal activity (AC50) under setting [2] was 7.08 µM [rising, partial curve, poor fit].

Take `COc1ccc(S(=O)(=O)NC(N)=NCCc2ccc(OC)c(OC)c2)cc1`: the AC50 under setting [1] is 0.708 µM [rising, full curve, poor fit]. Same read-out and setting: the value for `COC(=O)CCCC(=O)NC1CCCc2c1cnn2-c1ccc(F)cc1F` (configuration not stated) was 0.1 µM [rising, full curve, poor fit]; that for `N#Cc1c(-c2ccc(Cl)cc2)ccnc1N1CCOCC1` was 3.55 µM [rising, partial curve, poor fit]; that for `CCCOc1cccc(C(=O)Nc2cccc(NC(=O)c3ccco3)c2)c1` was 2 µM [falling, partial curve].

`Cc1ccc(NCc2nc3ccccc3n2CCOc2ccccc2)cc1`: the half-maximal activity concentration (AC50) under setting [1] was 1.84 µM [falling, partial curve]. With `Clc1ccc(-c2nnc(NC3=NCCCCC3)o2)cc1`, under setting [1], the AC50 was 1.58 µM [falling, full curve]. Consider `C=CCN1C(=O)C2(/C(=C(\O)c3ccc4c(c3)OCCO4)C(=O)C(=O)N2CCCOC)c2ccccc21` (configuration not stated), for which the AC50 under setting [1] was 5.8 µM [rising, full curve]. In the case of `O=C(NN=C1CCCC1)c1[nH]c2ccc(Cl)cc2c1-c1ccccc1`, the concentration at half-maximal activity (AC50) under setting [1] was 3.98 µM [rising, full curve, poor fit] and the concentration at half-maximal activity (AC50) under setting [2] is 3.55 µM [falling, full curve, poor fit]. On to `COc1ccc2c(CC(=O)Nc3ccccc3OC)coc2c1`, for which, under setting [1], the AC50 is 0.398 µM [falling, full curve, poor fit]. Same read-out and setting: the value for `CCOc1cc(CNCC(C)C)c(Cl)cc1OCC(=O)Nc1ccccc1` was 22.4 µM [falling, single point]; that for `CCC(C(=O)NCc1ccco1)N(C(=O)CNS(=O)(=O)c1ccccc1)c1ccccc1C` (configuration not stated) was 35.5 µM [rising, single point].

As to `O=C(O)CNc1nc(-c2ccccc2)nc2c1oc1ccccc12`, the half-maximal activity concentration (AC50) under setting [2] is 17.8 µM [rising, partial curve, poor fit].

For the compound `O=C(OCCCN=C1NS(=O)(=O)c2ccccc21)c1cccs1`, the AC50 under setting [1] was 3.55 µM [rising, full curve, poor fit]. Same read-out and setting: the value for `Cc1cccc(-n2c(O)c(/C=N/NC(=O)c3ccccc3Cl)c3ccccc3c2=O)n1` was 7.31 µM [falling, partial curve]; that for `Cc1cc(C)c(S(=O)(=O)NCC(c2cccs2)S(=O)(=O)c2ccccc2)c(C)c1` (configuration not stated) was 0.251 µM [falling, full curve, poor fit]; that for `COc1ccc2c(c1OC)C(=O)N(c1cccc(/C=C/C(=O)O)c1)C2` was 1.41 µM [falling, full curve]. On the same count and under the same terms, the value for `O=C(CNC(=O)c1ccccc1)N/N=C/c1ccc([N+](=O)[O-])o1` was 29.1 µM [falling, single point]. For the compound `ClC(Cl)(Cl)c1nc2ccccc2n2nncc12`, the AC50 by setting is: under setting [1], 17.8 µM [falling, partial curve]; under setting [2], 22.4 µM [falling, partial curve]. As to `CCCc1noc2c1/C(=N\O)CC(c1ccccc1)C2` (configuration not stated), the concentration at half-maximal activity (AC50) under setting [1] is 20.6 µM [rising, partial curve, poor fit]. For `CCOC(=O)c1sc2nc(-c3ccco3)c3c(c2c1N)CC(C)(C)OC3`, under setting [1], the concentration at half-maximal activity (AC50) is 10 µM [falling, partial curve, poor fit]. For the compound `COCCN1C=C(C(=O)OC)C(c2ccc(Cl)cc2)C(C(=O)OC)=C1`, under setting [1], the AC50 was 25.1 µM [falling, partial curve, poor fit].

In the case of `COc1cc2c(c(OC)c1OC)-c1ccc(OC)c(=O)cc1[C@@H](NC(C)=O)CC2`, the AC50 was 3.55 µM [rising, partial curve, poor fit] under setting [1] and 0.251 µM [falling, full curve, poor fit] under setting [2].

On to `O=C(Nc1ccc(N2CCCCC2)cc1)c1ccccc1`, for which the AC50 under setting [1] was 7.31 µM [falling, partial curve]. Turning to `COc1ccc(OCC(N)=O)cc1`, under setting [1], the concentration at half-maximal activity (AC50) is 17.8 µM [rising, partial curve, poor fit]. Still for that read-out and setting: the value for `COC(=O)c1ccc(SCc2cnc(Cl)s2)cc1` was 35.5 µM [rising, single point]. `CCN(CC)S(=O)(=O)c1ccc(N2CCOCC2)c(NC(=O)c2cccc(C#N)c2)c1`: the AC50 under setting [1] was 0.562 µM [rising, full curve, poor fit]. On to `Cc1nn(C)c(C)c1S(=O)(=O)N1CCCC(C(=O)N2CCN(c3ccc(Cl)cc3)CC2)C1` (configuration not stated), for which the AC50 under setting [1] was 8.2 µM [falling, full curve, poor fit].
